Source: US4973545A, “Photographic couplers with aryloxysilyl groups” (Eastman Kodak Company, priority 1988, dated 1990)

Experiment: Sensitometric testing: photographic speed
Details: C41 processing, step-wedge exposure

SMILES | Photographic speed
CCCCCCCCCCC(Oc1ccc(S(=O)(=O)c2ccc(O[Si](C)(C)C(C)(C)C)cc2)cc1)C(=O)Nc1ccc(CCCc2n[nH]c3c(Cl)c(C)nn23)cc1 (stereo not drawn) [Coupler 1] | 321
CCCCCCCCCCCCC(Oc1ccc(O[Si](C)(C)C(C)(C)C)c(C(C)(C)C)c1)C(=O)Nc1ccc(Cl)c(NC2=NN(c3c(Cl)cc(Cl)cc3Cl)C(=O)C2)c1 (stereo not drawn) [Coupler 3] | 311
CCCCCCCCCCC(Oc1ccc(S(=O)(=O)c2ccc(O[Si](C)(C)C(C)(C)C)cc2)cc1)C(=O)Nc1ccc(Cl)c(NC2=NN(c3c(Cl)cc(Cl)cc3Cl)C(=O)C2)c1 (stereo not drawn) [Coupler 4] | 317
CCCCCCCCCCC(Oc1ccc(S(=O)(=O)c2ccc(O)cc2)cc1)C(=O)Nc1ccc(CCCc2n[nH]c3c(Cl)c(C)nn23)cc1 (stereo not drawn) [Coupler C-1] | 298
CCCCCCCCCCCCC(Oc1ccc(O)c(C(C)(C)C)c1)C(=O)Nc1ccc(Cl)c(NC2=NN(c3c(Cl)cc(Cl)cc3Cl)C(=O)C2)c1 (stereo not drawn) [Coupler C-3] | 316
CCCCCCCCCCC(Oc1ccc(S(=O)(=O)c2ccc(O)cc2)cc1)C(=O)Nc1ccc(Cl)c(NC2=NN(c3c(Cl)cc(Cl)cc3Cl)C(=O)C2)c1 (stereo not drawn) [Coupler C-4] | 317
